This experiment deals with CENP-E_(2055–2358)–3C cleavage site–6×His bound to Ni-NTA beads (human) (UniProt Q02224). In words: affinity purification with mass spectrometry; 600 µg CENP-E 2055-2358-3C-6xHis on Ni-NTA agarose beads, incubated 1 h at 4°C with cleared mitotic HeLa lysate (nocodazole 14 h); eluted with 3C protease; LC-MS/MS; beads alone as control; only the target purified.

The chains behind the UniProt entries cited, without tags or fusion partners. Residues count along the entry.
UniProt Q02224, residues 2055-2358: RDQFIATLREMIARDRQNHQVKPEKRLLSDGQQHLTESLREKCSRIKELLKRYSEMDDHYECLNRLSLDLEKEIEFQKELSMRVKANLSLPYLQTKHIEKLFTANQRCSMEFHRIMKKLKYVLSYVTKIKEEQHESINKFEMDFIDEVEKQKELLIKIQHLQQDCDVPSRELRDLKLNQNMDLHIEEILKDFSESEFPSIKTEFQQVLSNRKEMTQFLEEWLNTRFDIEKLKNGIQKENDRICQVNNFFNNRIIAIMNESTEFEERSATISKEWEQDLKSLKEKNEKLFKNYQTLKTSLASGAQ
UniProt O60566: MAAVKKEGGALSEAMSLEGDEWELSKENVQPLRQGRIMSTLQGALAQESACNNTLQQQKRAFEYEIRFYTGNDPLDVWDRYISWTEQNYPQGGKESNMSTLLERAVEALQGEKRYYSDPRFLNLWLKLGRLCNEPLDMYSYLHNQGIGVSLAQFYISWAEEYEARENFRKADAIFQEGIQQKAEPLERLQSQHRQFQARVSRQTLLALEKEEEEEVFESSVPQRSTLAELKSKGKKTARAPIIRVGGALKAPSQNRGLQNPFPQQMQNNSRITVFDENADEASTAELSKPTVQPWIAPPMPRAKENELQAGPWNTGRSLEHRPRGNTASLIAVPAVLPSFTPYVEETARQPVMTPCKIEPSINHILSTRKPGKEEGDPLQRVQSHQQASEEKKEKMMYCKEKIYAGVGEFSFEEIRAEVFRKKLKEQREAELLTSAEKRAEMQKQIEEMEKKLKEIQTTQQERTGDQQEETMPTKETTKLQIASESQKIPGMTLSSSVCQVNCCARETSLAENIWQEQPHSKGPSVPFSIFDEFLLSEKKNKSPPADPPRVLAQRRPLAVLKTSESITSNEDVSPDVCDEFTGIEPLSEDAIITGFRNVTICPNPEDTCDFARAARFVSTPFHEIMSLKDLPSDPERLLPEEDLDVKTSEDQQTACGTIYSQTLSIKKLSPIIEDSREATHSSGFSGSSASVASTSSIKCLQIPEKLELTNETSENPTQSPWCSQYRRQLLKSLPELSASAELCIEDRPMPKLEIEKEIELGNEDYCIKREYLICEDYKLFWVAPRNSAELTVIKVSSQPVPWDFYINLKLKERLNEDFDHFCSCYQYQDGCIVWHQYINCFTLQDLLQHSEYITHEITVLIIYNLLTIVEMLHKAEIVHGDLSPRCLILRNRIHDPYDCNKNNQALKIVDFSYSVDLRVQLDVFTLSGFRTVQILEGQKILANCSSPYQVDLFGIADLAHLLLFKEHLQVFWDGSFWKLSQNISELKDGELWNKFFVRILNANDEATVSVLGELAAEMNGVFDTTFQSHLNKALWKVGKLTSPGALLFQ

Results are given in words; binding and its absence hold for the method and conditions named. Binding seen in cells or lysates may run through a third protein. Here binding means that the protein was enriched with, or labelled near, the bait; the list need not be complete.

“BubR1 (BUB1B), endogenous (from UniProt O60566 1-1050)”: the binding result is “binds”.
